Construct, isoform or probe ends are uncertain for at least one entry. Results from cells or extracts need not show a direct contact. Tags and fusion partners may be left off the protein sequences shown.
Biological target: T1, BioR1 (Paracoccus denitrificans PD1222) (UniProt A1B1Y8)
T1 sequence (looked up): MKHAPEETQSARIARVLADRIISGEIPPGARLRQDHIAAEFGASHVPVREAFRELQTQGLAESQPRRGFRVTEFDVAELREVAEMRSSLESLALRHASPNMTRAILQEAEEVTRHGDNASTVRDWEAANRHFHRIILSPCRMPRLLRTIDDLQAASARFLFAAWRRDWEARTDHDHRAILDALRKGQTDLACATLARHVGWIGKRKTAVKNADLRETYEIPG
Test: EMSA
Conditions: crude extract; ~0.2 pmol DIG-labeled probe with BioR (10-20 pmol BioR2 in 15 uL, Fig. 6) in Roche binding buffer, 15 min, room temperature; native 7% PAGE; protein in a lysate after overexpression; residues 1-222; protein details: 6xHis (pET28a); label: digoxigenin

Sequence	binding result
CTCTCTTGAGGAGGCAAAAATTATCTATAATTTGCCATTTAACGACCTGC (double strand) [bioBFDAZ_at (bioB_at) probe]	binds
GGCGCTGACCGTTTTATAGATACTTCCACATGAGGC (double strand) [bioBFDAGC_pd probe]	binds
GGTGCAGCATGAATTATCTATAATTCATGAAACACG (double strand) [bioR1_pd probe]	binds
